# Test results published in PubChem BioAssay AID1487 (National Center for Advancing Translational Sciences (NCATS), 2009).
# The list shows a part of the results. These are further read-outs of the screen, such as a control signal, another cell line or another target. No call is given for them. The list favours compounds with an active or inconclusive main result. Potencies come from curve fits of mixed quality, noted in brackets.
# Experiment: qHTS Assay for Modulators of Lamin A Splicing
# Conditions: HeLa LMNA splicing GFP/RFP minigene ratio, 48 h
# Method in brief: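 Read-out is the ratio of GFP to DsRed2 object intensity, acquired by 488 nm laser-scanning cytometry on HeLa lamin A-EGFP minigene reporter cells. Compound incubation 48 hrs at 37 °C in Opti-MEM with 2% FBS; DMSO 0.5% final.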
# [1] = measured here: RFP viability control channel
# [2] = measured here: GFP splicing reporter channel
SMILES,AC50 [1],AC50 [2]
COC(=O)c1ccc(OCC2c3cc(OC)c(OC)cc3CCN2C(=O)COc2ccc(Cl)cc2)cc1 (configuration not stated),"0.00447 µM [falling, full curve, poor fit]",
NC(=O)c1ccc(N2CCN(c3ccc(O)cc3)CC2)c([N+](=O)[O-])c1,,"10 µM [falling, partial curve, poor fit]"
CCCCNS(=O)(=O)c1ccc(NC(=O)c2cccs2)cc1,"35.5 µM [rising, single point]",
COc1ccc(F)cc1S(=O)(=O)NCCc1csc2nc(-c3cccc(C)c3)nn12,"35.5 µM [falling, single point]","31.6 µM [falling, single point]"
COc1ccccc1OCC(=O)NCC(c1ccc(Cl)cc1)N1CCCCC1 (configuration not stated),,"1.78 µM [falling, full curve, poor fit]"
Cc1ccc(C(=O)OCCc2sc[n+](Cc3ccccc3)c2C)cc1,"17.8 µM [rising, single point]",
Cc1ccc(C(C#N)c2ccc(C(=O)c3ccc(F)cc3)cc2)cc1 (configuration not stated),"14.1 µM [rising, single point]",
CCC(Oc1ccccc1)C(=O)O/N=C(\N)c1ccc(OC)c(OC)c1 (configuration not stated),"10 µM [rising, partial curve, poor fit]",
COc1ccccc1-n1cnc(N)c1C(=O)c1ccccc1,"31.6 µM [rising, single point]",
Cc1cccc(/C=C(\c2nc3ccccc3[nH]2)S(=O)(=O)c2ccccc2)c1,,"3.98 µM [falling, full curve, poor fit]"
CCOc1cc(C(=O)NCCc2csc3nc(-c4ccc(C)cc4)nn23)cc(OCC)c1OCC,"3.16 µM [rising, partial curve, poor fit]",
N#CCC(=O)Nc1nc(-c2ccc3c(c2)OCCO3)cs1,,"0.0562 µM [falling, full curve, poor fit]"
COc1ccc(C(=O)N/N=C/c2sc3ccccc3c2O)cc1,"14.1 µM [rising, partial curve]","14.1 µM [rising, partial curve, poor fit]"
CCOc1ccc2[nH]c(=O)c(CN(Cc3ccco3)C(CC)c3nnnn3Cc3ccccc3)cc2c1 (configuration not stated),"11.2 µM [falling, partial curve, poor fit]",
Cc1nsc2c1ccc1ccccc12,,"0.0126 µM [rising, full curve, poor fit]"
COc1ccccc1NC(=S)NC1CCCCCC1,"14.1 µM [rising, partial curve]",
CCOc1ccccc1NC(=S)N(CCC(C)C)C1CCN(C(C)=O)CC1,"6.31 µM [falling, single point]","5.62 µM [falling, single point]"
N#Cc1c(N)c(C#N)c(-c2ccc3c(c2)OCO3)c2c1CCCC2,"35.5 µM [rising, single point]","12.6 µM [rising, partial curve, poor fit]"
CS/C(=N\S(=O)(=O)c1cccs1)Nc1ccc(Br)cc1F,"35.5 µM [rising, single point]",
COc1ccc(S(=O)(=O)N2CCCCC2)cc1,,"6.31 µM [falling, single point]"

SMILES,AC50 [1],AC50 [2]
Cc1cc(N/N=C/c2ccccc2)nc(NCc2ccccc2)n1,"22.4 µM [rising, single point]","15.8 µM [rising, single point]"
O=C(c1ccc(F)cc1)N1c2nc(-c3ccco3)nn2C2(CCCCC2)[C@@H]2CCCC[C@@H]21,,"0.01 µM [rising, full curve, poor fit]"
O=C(Cc1cccc2ccccc12)N/N=C/c1ccc(O)c([N+](=O)[O-])c1,,"35.5 µM [falling, single point]"
N#CCC(=O)Nc1ccc(C(=O)OCC(=O)Nc2ccccc2-c2ccccc2)cc1,"6.31 µM [falling, partial curve]",
Cc1ccc(SCCNC(=O)c2ccc(CN3CCOCC3)cc2)cc1,"5.01 µM [rising, partial curve, poor fit]",
CCC(=O)Nc1nnc(SCc2cc(=O)c3cc(C)ccc3[nH]2)s1,,"0.224 µM [rising, partial curve]"
CC1(C)SC2C(NC(=O)C(C(=O)O)c3ccccc3)C(=O)N2C1C(=O)O (configuration not stated),"0.158 µM [rising, full curve, poor fit]",
COc1ccc(CCCc2nnc(SCC(=O)Nc3ncc(C)s3)o2)cc1,"17.8 µM [rising, single point]","12.6 µM [rising, partial curve, poor fit]"
Cc1ccc(S(=O)(=O)N2CCC(=O)N(C(COCc3cccc(C)c3)C(C)C)CC2)cc1 (configuration not stated),"7.08 µM [rising, partial curve, poor fit]",
COC(=O)C(=C/C(C)=C/c1cccs1)C(=O)OC,"14.1 µM [falling, single point]",
CCOC(=O)c1c[nH]c(=S)n1C,,"1.26 µM [rising, partial curve]"
COc1ccc(CCNC(=O)C(=O)NCc2ccccc2C)cc1OC,"0.398 µM [falling, full curve, poor fit]",
CC(=O)Nc1cc(C(=O)NCc2ccco2)ccc1Sc1ccc(F)cc1,"7.08 µM [rising, partial curve]",
Cc1cc(C)cc(NS(=O)(=O)c2ccc(Oc3ncc(C(F)(F)F)cc3Cl)cc2)c1,"31.6 µM [falling, single point]","28.2 µM [falling, single point]"
O=C(NNC(=S)Nc1cccc(C(F)(F)F)c1)c1cccc(Cl)c1,"11.2 µM [rising, partial curve]","7.94 µM [rising, partial curve]"
C[C@@H](C[N+](C)(C)C)OC(N)=O,"0.0891 µM [falling, full curve]","0.1 µM [falling, full curve]"
Oc1ccc(/C=N/NC(=S)Nc2cccnc2)c(O)c1,"25.1 µM [rising, single point]","22.4 µM [rising, single point]"
CCCCC(CC)CNC(=O)/C=C/c1ccc(F)cc1 (configuration not stated),"10 µM [rising, partial curve, poor fit]",
COc1ccc(/C=N/n2c(N)nc(-c3ccccc3)c2-c2ccccc2)cc1,"35.5 µM [rising, single point]",
CC(C)c1ccc(/C=C/c2ccc(=O)n(C)n2)cc1,"8.91 µM [rising, partial curve, poor fit]",

# Two entries from above, with bars between the fields.
SMILES | AC50 [1] | AC50 [2]
COc1ccccc1NC(=S)NC1CCCCCC1 | 14.1 µM [rising, partial curve] | 
C[C@@H](C[N+](C)(C)C)OC(N)=O | 0.0891 µM [falling, full curve] | 0.1 µM [falling, full curve]

# Copied from the entries so far, 2 compounds:
SMILES,AC50 [1],AC50 [2]
C[C@@H](C[N+](C)(C)C)OC(N)=O,"0.0891 µM [falling, full curve]","0.1 µM [falling, full curve]"
Oc1ccc(/C=N/NC(=S)Nc2cccnc2)c(O)c1,"25.1 µM [rising, single point]","22.4 µM [rising, single point]"

# (next part)

SMILES,AC50 [1],AC50 [2]
CCOC(=O)N1CCN(C(=O)CS(=O)(=O)c2cn(Cc3ccc(Cl)cc3)c3ccccc23)CC1,"4.47 µM [rising, full curve, poor fit]",
O=C(O)c1cn(-c2ccc(F)cc2)c2cc(N3CCNCC3)c(F)cc2c1=O,"2.24 µM [rising, partial curve, poor fit]",
COc1ccc(/C=C(/C(=O)c2ccc(Cl)cc2Cl)n2cncn2)cc1,,"35.5 µM [rising, single point]"
CCOC(=O)c1[nH]c(C)c(C(=O)Nc2ccccc2F)c1C,"5.62 µM [rising, full curve]",
CC1CCCC(NC(=O)COC(=O)Cc2ccc(Br)cc2)C1C (configuration not stated),"35.5 µM [rising, single point]",
CCOC(=O)N1CCC(n2c(SCC(=O)N3CCC(C)CC3)nc3ccccc3c2=O)CC1,,"3.55 µM [rising, partial curve]"
CCOC(=O)c1cc(-c2ccccc2)n(CC(=O)NC(C)c2ccccc2)c1C (configuration not stated),"28.2 µM [falling, single point]",
Cc1ccc(NC(=O)COC(=O)C2CC2C)c(S(=O)(=O)N2CCCCC2)c1 (configuration not stated),"0.00891 µM [rising, full curve, poor fit]",
CN1CCN(NC(=O)c2cn(-c3ccccc3)nc2-c2cccc(Br)c2)CC1,,"2.24 µM [falling, full curve, poor fit]"
O=C(/C=C/c1ccc(F)cc1)N1CC[C@@]2(O)CCCC[C@H]2C1,,"0.447 µM [rising, full curve, poor fit]"
CS(=O)(=O)c1ncc(Cl)c(C(=O)Nc2ccc(N3CCOCC3)cc2)n1,"11.2 µM [rising, partial curve]","31.6 µM [falling, single point]"
O=C1N=c2ccccc2=C1c1[nH]c(=S)[nH]c1O,"0.02 µM [rising, full curve, poor fit]",
CN1CCN(c2ccc(C(=O)c3ccc(F)cc3)cc2)CC1,"0.0794 µM [rising, full curve, poor fit]",
COc1ccc(NS(=O)(=O)c2cc(OC)ccc2NC(=O)c2cc(C)oc2C)cc1,"22.4 µM [rising, single point]",
O=C(COC(=O)c1c2c(nc3ccccc13)CCCC2)c1cccs1,"20 µM [falling, single point]","11.2 µM [falling, partial curve, poor fit]"
COc1ccc(S(=O)(=O)N(Cc2ccccc2)Cc2nc3ccccc3c(=O)[nH]2)cc1,"11.2 µM [rising, partial curve, poor fit]",
CCOc1cc(/C=C/C(=O)c2ccc(C)cc2)ccc1OCC(=O)N(C)C,"0.0447 µM [rising, full curve, poor fit]",
COc1ccccc1CNC(=O)COC(=O)[C@H](Cc1c[nH]c2ccccc12)NC(=O)c1cccs1,,"0.0178 µM [falling, full curve, poor fit]"
CCOc1ccc(N2C(=O)CC(Sc3n[nH]c(-c4ccccc4)n3)C2=O)cc1 (configuration not stated),"11.2 µM [falling, partial curve]","22.4 µM [falling, partial curve, poor fit]"
